Source: the supplement of paper PMC8166895
Where a name gives a salt, the structure may show the parent alone. The list shows a part of the results. Most entries show no effect beyond the scatter of the controls.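 A single-replicate pilot screen of approved drugs and clinical or known-target compounds measured melting temperature via differential scanning fluorimetry. Top stabilizing hits raised the melting point by 2 °C or more; negative shifts indicate destabilization.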

test system: SARS-CoV-2 main protease (Mpro, nsp5); experiment: thermal shift ΔTm of Mpro relative to plate average Tm; higher = stronger thermal stabilization of Mpro (binding); conditions: 10 µM; protein concentration 1 µM

Compound | thermal shift ΔTm of Mpro
C=C[C@H]1CN2CC[C@H]1C[C@H]2[C@H](OC(=O)OCC)c1ccnc2ccc(OC)cc12 [Euquinine] | 0.239 °C
c1cc(-c2cnn3cc(-c4ccc(N5CCNCC5)cc4)cnc23)c2cccnc2c1 | -0.145 °C
O=C([O-])CN(CCN(CC(=O)[O-])CC(=O)O)CC(=O)[O-].[Na+].[Na+].[Na+] [Edetate Trisodium] | 0.251 °C
Cn1c(=O)c(Oc2ccc(F)cc2F)cc2cnc(NC(CCO)CCO)nc21 [Pamapimod] | 0.0214 °C
NCCCC[C@@H]1NC(=O)[C@@H](Cc2ccccc2)NC(=O)[C@H](CC(=O)O)NC(=O)CNC(=O)[C@H](CCCN=C(N)N)NC1=O [Cyclo (-RGDfK)] | -0.00264 °C
C[C@@H]1CC(=O)Nc2cccc(-c3ccc4c(c3)c(-c3cnn(C)c3)nn4C)c2N1 | -0.0724 °C
CCN(CC)CCNC(=O)c1c(C)[nH]c(/C=C2\C(=O)Nc3ccc(-c4csc(-c5ccccc5)n4)cc32)c1C [Amcasertib] | 0.358 °C
COc1cc(C(C)=O)ccc1OCCCN1CCC(c2noc3cc(F)ccc23)CC1 [Iloperidone] | 0.374 °C
CCOC(=O)[C@H](CCc1ccccc1)N[C@H]1CCCN2CCC[C@@H](C(=O)O)N2C1=O [Cilazapril Monohydrate] | 0.0842 °C
CNC(=O)[C@@H](c1ccccc1)N1CCc2cc(OC)c(OC)cc2[C@@H]1CCc1ccc(C(F)(F)F)cc1 [Almorexant] | -0.12 °C
CNC(=O)[C@@H](c1ccccc1)N1CCc2cc(OC)c(OC)cc2[C@@H]1CCc1ccc(C(F)(F)F)cc1 [Almorexant HCl] | -0.491 °C
CCCC1O[C@@H]2C[C@H]3[C@@H]4CCC5=CC(=O)C=C[C@]5(C)[C@H]4[C@@H](O)C[C@]3(C)[C@]2(C(=O)CO)O1 (stereo not given in full) [Budesonide] | 0.146 °C
Cc1cc(O)ccc1Cl [Chlorocresol] | -0.175 °C
COc1ccc(/C=C\c2cc(OC)c(OC)c(OC)c2)cc1O [Combretastatin A4] | -0.204 °C
Cc1cccc(C)c1N(CC(=O)Nc1ccc(-c2ncon2)cc1)C(=O)C1CCS(=O)(=O)CC1 [Amenamevir] | -0.0331 °C
CC1=C(C(=O)Nc2cc3cn[nH]c3cc2F)C(c2ccc(C(F)(F)F)cc2)CC(=O)N1 (stereo not given) | 0.324 °C
CNC(=O)c1ccccc1Nc1nc(Nc2ccc(N3CCOCC3)cc2OC)ncc1Cl | -0.0819 °C
NCC(CC(=O)O)c1ccccc1 (stereo not given) [Phenibut] | -0.108 °C
CCOC(=O)c1ncn2c1CN(C)C(=O)c1cc(F)ccc1-2 [Flumazenil] | 0.318 °C
Cc1cc(C)c2c(c1)[C@@H](N(Cc1cc(C(F)(F)F)cc(C(F)(F)F)c1)c1nnn(C)n1)CCCN2C[C@H]1CC[C@H](C(=O)O)CC1 | -0.0559 °C
C=CC[C@]1(O)CC[C@H]2[C@@H]3CCC4=CCCC[C@@H]4[C@H]3CC[C@@]21C [Allylestrenol] | 0.129 °C
Cn1c(=O)cc(C(=O)Nc2ccc3c(c2)OCCO3)c2ccccc21 | 0.0238 °C
COC(=O)N[C@H](C(=O)N1CCC[C@H]1c1ncc(-c2ccc(-c3ccc(-c4cnc([C@@H]5CCCN5C(=O)[C@@H](NC(=O)OC)C(C)C)[nH]4)cc3)cc2)[nH]1)C(C)C | 0.214 °C

Compound | thermal shift ΔTm of Mpro
COC(=O)N[C@H](C(=O)N1CCC[C@H]1c1ncc(-c2ccc(-c3ccc(-c4cnc([C@@H]5CCCN5C(=O)[C@@H](NC(=O)OC)C(C)C)[nH]4)cc3)cc2)[nH]1)C(C)C [Daclatasvir dihydrochloride] | -0.0365 °C
CCCCN(Cc1ccc(C(=O)NO)cc1)C(=O)Nc1ccccc1 [Nexturastat A] | 0.0549 °C
C#C[C@]1(O)CC[C@H]2[C@@H]3CCc4cc(O)ccc4[C@H]3CC[C@@]21C [Ethinyl Estradiol] | -0.141 °C
CN[C@@H]1[C@@H](O)[C@@H](O[C@@H]2[C@@H](O)[C@H](O[C@H]3O[C@H](CN)[C@@H](O)[C@H](O)[C@H]3O)[C@@H](N)C[C@H]2NC(=O)[C@@H](O)CN)OC[C@]1(C)O [Isepamicin sulfate] | -0.0561 °C
COc1cc(F)c(F)c(Nc2ccc(I)cc2F)c1NS(=O)(=O)C1(C[C@H](O)CO)CC1 [Refametinib (RDEA119, Bay 86-9766)] | 0.238 °C
CC(C)n1cnc2c(-c3cnc(N)nc3)nc(N3CCOCC3)nc21 [Desmethyl-VS-5584] | 0.131 °C
O=S(=O)(c1ccccc1)N(CC(F)(F)F)c1ccc(C(O)(C(F)(F)F)C(F)(F)F)cc1 | -0.00135 °C
CC#CC(=O)Nc1ccc2ncnc(Nc3cccc(Br)c3)c2c1 | 0.145 °C
CCOC(=O)C1=C(C)NC(C)=C(C(=O)OCC)C1c1ccccc1/C=C/C(=O)OC(C)(C)C [Lacidipine] | 0.0491 °C
Cn1c(=O)n(-c2ccc(C(C)(C)C#N)cc2)c2c3cc(-c4cnc5ccccc5c4)ccc3ncc21 [Dactolisib] | -0.241 °C
O=C(c1cccs1)c1no[n+]([O-])c1C(=O)c1cccs1 | 0.0698 °C
O=C(O)C(Cc1c[nH]c2ccccc12)N1C(=O)c2ccccc2C1=O (stereo not given) | -0.138 °C
CCOc1cc(CC(=O)N[C@@H](CC(C)C)c2ccccc2N2CCCCC2)ccc1C(=O)O [Repaglinide] | 0.297 °C
CCCn1/c(=N/C(=O)c2cccc(C(N)=O)c2)[nH]c2ccccc21 [Takinib] | -0.0864 °C
CC(=O)OCC(=O)[C@@]1(O)[C@H](C)C[C@H]2[C@@H]3CCC4=CC(=O)C=C[C@]4(C)[C@@]3(F)[C@@H](O)C[C@@]21C [Dexamethasone Acetate] | 0.011 °C
COc1ncnc(NS(=O)(=O)c2ccc(N)cc2)c1OC [Sulfadoxine] | 0.277 °C
CC(C)(C)c1ccc(C(=O)NC(=S)Nc2ccc(N)cc2)cc1 [Tenovin-3] | 0.0952 °C
CC1(C)CCC[C@]2(C)[C@H]3CC(=O)O[C@]3(C)CC[C@@H]12 [Sclareolide] | -0.102 °C
COc1ccc(C(=O)c2ccccc2)c(O)c1 [Oxybenzone] | 0.145 °C
COc1c(N2C[C@@H]3CCCN[C@@H]3C2)c(F)cc2c(=O)c(C(=O)O)cn(C3CC3)c12 [Moxifloxacin HCl] | 0.247 °C
COc1ccc(C(=O)CC(=O)c2ccc(C(C)(C)C)cc2)cc1 [Avobenzone] | -0.0273 °C
OC[C@H]1O[C@H](OC[C@H]2OC(O)[C@H](O)[C@@H](O)[C@@H]2O)[C@H](O)[C@@H](O)[C@@H]1O (stereo not given in full) [Isomaltose] | 0.196 °C

Given with tabs: part of the list above.
Compound	thermal shift ΔTm of Mpro
CC(C)n1cnc2c(-c3cnc(N)nc3)nc(N3CCOCC3)nc21 [Desmethyl-VS-5584]	0.131 °C
O=C(c1cccs1)c1no[n+]([O-])c1C(=O)c1cccs1	0.0698 °C
O=C(O)C(Cc1c[nH]c2ccccc12)N1C(=O)c2ccccc2C1=O (stereo not given)	-0.138 °C
CCOc1cc(CC(=O)N[C@@H](CC(C)C)c2ccccc2N2CCCCC2)ccc1C(=O)O [Repaglinide]	0.297 °C
